# PubChem BioAssay (Tox21)
# By UniProt entry, the sequences of proteins in these tests, tags left out.
# UniProt P14416, whole entry, looked up: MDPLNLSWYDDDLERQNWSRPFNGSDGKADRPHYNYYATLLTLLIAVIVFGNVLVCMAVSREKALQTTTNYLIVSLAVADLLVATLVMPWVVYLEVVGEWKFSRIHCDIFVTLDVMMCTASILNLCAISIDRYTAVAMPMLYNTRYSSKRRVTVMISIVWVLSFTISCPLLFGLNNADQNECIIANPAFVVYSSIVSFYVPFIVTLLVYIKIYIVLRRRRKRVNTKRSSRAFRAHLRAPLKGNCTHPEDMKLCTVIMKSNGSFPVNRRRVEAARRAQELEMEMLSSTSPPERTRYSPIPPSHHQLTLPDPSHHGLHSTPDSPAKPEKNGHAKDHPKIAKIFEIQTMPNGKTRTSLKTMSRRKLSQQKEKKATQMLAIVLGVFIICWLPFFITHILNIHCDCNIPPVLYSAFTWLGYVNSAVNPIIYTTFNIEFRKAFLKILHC
# The shares of active, inactive and inconclusive entries below differ from those in the screen. For some of these results: Potencies of inconclusive entries are doubtful fits and often do not repeat. The source made the active and inactive calls. Unless noted, calls come from the whole dose curve.
# What was measured:
# [1] = cAMP Responsive Elements (CRE) small molecule antagonists, cell-based qHTS assay (AID 1963591; active = well fitted inhibition curve with a large enough effect in the signal ratio in the repeat runs, not every such curve was filed as active; inconclusive = weak or mixed curves, or effect the other way; the % refers to the signal ratio); conditions: CRE-bla HEK293T, beta-lactamase FRET ratio; activity change, negative = inhibition: at 92.4 µM (top of the series) unless noted
# Method in brief: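 Inhibition of NKH477-driven (0.25 uM final) CRE-beta-lactamase signal in HEK293T cells, 3 h compound exposure at 37 °C, detected by FRET substrate fluorescence.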
# [2] = biological target: Beta-2 adrenergic receptor (Homo sapiens) (UniProt P07550); assay: Adrenergic beta2 receptor (ADRB2) small molecule antagonists, cell-based qHTS assay (AID 1963592); conditions: CHO-ADRB2 cells, isoproterenol-stimulated cAMP HTRF ratio, 0.5 h; activity change, negative = inhibition: at 92.4 µM (top of the series) unless noted; note: nearly all actives have a fitted effect of over 50% in size; note: potency is the fitted concentration of half-maximal effect
# Method in brief: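 Cells (CHO, stable ADRB2 overexpression) incubated 18-20hr at 37C; compounds added from DMSO; agonist mix (1nM isoproterenol, 100uM IBMX, 25uM Ro-20-1724) added; 0.5hr RT; d2-cAMP and anti-cAMP-cryptate added; 1hr RT; 665/615 nm read.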
# [3] = biological target: Beta-2 adrenergic receptor (Homo sapiens) (UniProt P07550); assay: Adrenergic beta2 receptor (ADRB2) small molecule agonists, cell-based qHTS assay (AID 1963593); conditions: CHO-ADRB2 cells, cAMP HTRF, 30 min; activation: at 92.4 µM (top of the series) unless noted; note: potency is the fitted concentration of half-maximal effect;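 for activation: CHO cells stably overexpressing human ADRB2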
# Method in brief: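 CHO cells stably over-expressing ADRB2 were plated overnight at 37C, then dosed with compounds plus a stimulation mix containing 100uM IBMX and 25uM Ro-20-1724 for 0.5hr at room temperature. cAMP was measured by HTRF competition, 1hr.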
# [4] = cAMP Responsive Elements (CRE) small molecule agonists, cell-based qHTS assay (AID 1963590); conditions: CRE-bla HEK293T, beta-lactamase FRET ratio, 3 h; activation: at 92.4 µM (top of the series) unless noted; note: potency is the fitted concentration of half-maximal effect
# Method in brief: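 Cell line: CRE-bla HEK 293T; medium DMEM/10% dialyzed FBS/0.1 mM NEAA/1 mM pyruvate/25 mM HEPES; 3 h compound exposure; beta-lactamase FRET readout after 2 h substrate loading at RT.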
# [5] = biological target: D(2) dopamine receptor (Homo sapiens) (UniProt P14416); assay: Dopamine D2 receptor (DRD2) small molecule agonists, cell-based qHTS assay (AID 1963594); conditions: HEK293-DRD2 cAMP HTRF, agonist mode, 30 min; activation: at 92.4 µM (top of the series) unless noted; note: nearly all actives have a fitted effect of over 35% in size; note: potency is the fitted concentration of half-maximal effect
# Method in brief: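 HEK293 cells stably expressing human DRD2, pre-treated with PDE inhibitor Ro20-1724 (0.1 mM final) and compound 10 min at room temperature, then stimulated with NKH477 (200nM […]) for 30 min. cAMP read by HTRF (665/620 nm).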
# [6] = biological target: D(2) dopamine receptor (Homo sapiens) (UniProt P14416); assay: Dopamine D2 receptor (DRD2) small molecule antagonists, cell-based qHTS assay (AID 1963595; active = well fitted inhibition curve with a large enough effect in the signal ratio in the repeat runs, with a control signal flat; inconclusive = weak or mixed curves, or effect the other way; the % refers to the signal ratio; note: potency is the fitted concentration of half-maximal effect); conditions: HEK293-DRD2 cAMP HTRF antagonist mode; activity change, negative = inhibition: at 92.4 µM (top of the series) unless noted
# Method in brief: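 HTRF cAMP read-out at 665 and 620 nm emission (340 nm excitation). Antagonist mode: compounds were tested against 12 nM quinpirole in DRD2-HEK293 cells, with 200 nM NKH477 raising cAMP and 0.1 mM Ro20-1724 blocking its breakdown.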
# % is set by controls: 0 for no effect and ±100 for the full control effect.
compound,measurement,setting,value
O=C1CN=C(c2ccccc2)c2cc(Cl)ccc2N1CC1CC1,"activity change, negative = inhibition",[1],inconclusive: -18.5%
same,Potency,[2],"inconclusive: 64.2 µM [inhibitor, single point]"
same,Potency,[3],"inconclusive: 12.8 µM [inhibitor, partial curve, poor fit]"
CC(C)=CCOc1c2occc2cc2ccc(=O)oc12,Potency,[4],"inconclusive: 42.2 µM [rising, single point]"
same,Potency,[5],inactive
ClSC(Cl)(Cl)Cl,Potency,[1],inactive
O=C(N[C@H]1CN2CCC1CC2)c1ccc2c(c1)OCCO2,"activity change, negative = inhibition",[1],inconclusive: -23.7%
same,Potency,[2],inactive
CCOP(OCC)OCC,Potency,[4],inactive
same,Potency,[3],"inconclusive: 31.2 µM [inhibitor, partial curve, poor fit]"
same,activation,[3],inconclusive: 2.45%
COc1ccc(C(CN(C)C)C2(O)CCCCC2)cc1 (stereo not given),Potency,[4],inactive
same,activation,[3],inconclusive: -45.9%
same,Potency,[5],inactive
O=S(=O)(Cl)c1ccccc1,Potency,[4],inactive
same,Potency,[6],inactive
[Cl][Sn]([Cl])([Cl])[Cl],"activity change, negative = inhibition",[2],inconclusive: -28.6%
same,activation,[3],inconclusive: -42.7%
O=c1[nH]c2ccccc2n1C1CCNCC1,Potency,[2],"inconclusive: 10.6 µM [inhibitor, full curve]"
same,Potency,[3],"inconclusive: 10.6 µM [inhibitor, partial curve]"
BrC(Br)Br,Potency,[2],inactive
same,Potency,[3],inactive
CCN[C@H](C)Cc1cccc(C(F)(F)F)c1,"activity change, negative = inhibition",[2],inconclusive: -23%
CC(C)NCC(O)c1ccc([N+](=O)[O-])cc1 (stereo not given),Potency,[2],active: 5.96 µM
same,Potency,[3],inconclusive: 1.33 µM [inhibitor]
CSC(C)(C)/C=N/O,Potency,[1],inactive
same,activation,[3],inconclusive: -34.4%
same,activation,[5],inconclusive: 27.8%
same,"activity change, negative = inhibition",[6],inconclusive: 10%
O=c1[nH]c2cc(Cl)ccc2n1C1CCNCC1,Potency,[2],"inconclusive: 23.7 µM [inhibitor, partial curve, poor fit]"
same,Potency,[3],"inconclusive: 23.7 µM [inhibitor, partial curve, poor fit]"
CC(Cc1ccccc1)NCc1ccccc1Cl (stereo not given),Potency,[2],inconclusive: 33.5 µM [inhibitor]
same,Potency,[3],"inconclusive: 0.841 µM [inhibitor, full curve, poor fit]"
same,Potency,[6],"inconclusive: 33.5 µM [inhibitor, partial curve, poor fit]"
CCOC(=O)C1OC1(C)c1ccccc1 (stereo not given),Potency,[1],inactive
same,activation,[3],inconclusive: -38.1%
CC[C@@H](CO)NC(=O)[C@@H]1C=C2c3cccc4[nH]cc(c34)C[C@H]2N(C)C1,Potency,[2],"inconclusive: 29.8 µM [falling, partial curve]"
same,Potency,[3],inconclusive: 26.6 µM [cytotoxic]
same,Potency,[5],inconclusive: 22 µM
same,Potency,[6],"inconclusive: 26.6 µM [cytotoxic, partial curve]"

# Looked up one by one from the entries so far, 2 records:
compound,measurement,setting,value
BrC(Br)Br,Potency,[2],inactive
CCOP(OCC)OCC,Potency,[4],inactive
